Results are given in words; binding and its absence hold for the method and conditions named. In cells and extracts the contact can be indirect. A result given as binding can be weak or reduced; the word gives no strength.
Target: RPTOR1-HA (L. major) (UniProt Q4QA34)
Test: co-IP

binding: binds
Substance: TOR1-Myc (LmxM.36.6320, N-terminally endogenously myc-tagged) (from UniProt E9AU66)

Reference: article doi:10.1101/2022.10.20.513059
